# Test system: 95 different cancer cell lines
# Assay: Proliferation assay on a panel of cancer cell lines
# Format: cell-based
# Details: read-out: IC50 proliferation, non-specific kinase inhibitors
structure (smiles),measurement,value
CN[C@@H]1C[C@H]2O[C@@](C)([C@@H]1OC)n1c3ccccc3c3c4c(c5c6ccccc6n2c5c31)C(=O)NC4 [staurosporine],IC50,< 100 nM

# — article PMC6258903 (Nature, 2014)
